Source: PubChem BioAssay AID540256 (National Center for Advancing Translational Sciences (NCATS), 2011)
The whole screen tested about 300,000 compounds, of which about 3,700 (1.2%) were called active. The inconclusive results got no clear call from the source; some entries with a clear call stand among them for comparison. The call rests on the fitted dose curve; tested in HEK293 cells. Potencies beside an inconclusive call are fits to weak or partial responses and may not hold up.
On the % scale 0 is the no-effect control and ±100 the full control effect; potency means the concentration at half of the fitted maximal effect.

Experiment: qHTS for Inhibitors of binding or entry into cells for Lassa Virus; further: nearly all actives have a fitted effect of over 50% in size
Conditions: Lassa virus pseudotype entry inhibition, cell reporter; activity change, negative = inhibition: at 37.9 µM (top of the series) unless noted
For `C=CCC1(C#N)C(=S)NC2=C(C(=O)CC(C)(C)C2)C1c1ccc(Br)cc1` (stereo not drawn), the Potency was inconclusive: 10 µM [activator, partial curve, poor fit].
In the case of `Cc1ccc(C)c(Nc2nnc(-c3ccc(C)c(S(=O)(=O)N4CCN(C)CC4)c3)c3ccccc23)c1`, the Potency is reported as inconclusive: 10 µM [inhibitor, partial curve, poor fit].
For `Cc1[nH][nH]c(=O)c1C(c1c(C)[nH][nH]c1=O)c1cn(Cc2ccc(Cl)c(Cl)c2)c2ccccc12`, the Potency was inconclusive: 5.8 µM [inhibitor, partial curve].
With `Cc1ccc(C#N)c(SCc2cc3c(cc2Cl)OCO3)n1` the “activity change, negative = inhibition” value was inactive: -23.4%.
In the case of `Cc1cc(C)c(NC(=O)CSc2n[nH]c(-c3ccccc3Cl)n2)c(C)c1`, the “activity change, negative = inhibition” value is reported as inactive: -8.73% [at 46.1 µM].
With `COC1(OC)C(/C=C/c2ccc(C)cc2)C(C#N)(C#N)C1(OC)OC` (stereo not drawn) the Potency was inconclusive: 7.94 µM [inhibitor, partial curve, poor fit].
With `CCC1CCCCN1S(=O)(=O)c1ccc(C(=O)N(CCCN(C)C)c2nc3cc4c(cc3s2)OCO4)cc1` (stereo not drawn) the Potency was inconclusive: 12.6 µM [inhibitor, partial curve, poor fit].
With `Cc1nn(C(C)(C)C)c(OC(=O)c2ccco2)c1Sc1ccccc1` the Potency was inconclusive: 6.51 µM [activator, single point].
In the case of `O=C(N/N=C\c1ccco1)Nc1cccc(Cl)c1`, the Potency is reported as inconclusive: 29.1 µM [inhibitor, single point].
With `CCn1cnc2cc(NCc3ccc(C)cc3)ccc21` the “activity change, negative = inhibition” value was inactive: 6.68%.
In the case of `COc1ccc(-c2nc(Cc3ccc(Cl)cc3)no2)cc1OC`, the Potency is reported as active: 3.98 µM.
In the case of `O=C(CSc1ccccn1)N1CCCC(Nc2ccc(F)c(F)c2)C1` (stereo not drawn), the Potency is reported as inconclusive: 0.0891 µM [activator, full curve, poor fit].
For `CCN(CC)S(=O)(=O)c1cc(NC(=O)C(C)N2CC=C(c3ccccc3)CC2)ccc1C` (stereo not drawn), the Potency was active: 16.4 µM.
With `O=C(COc1ccc(Cl)cc1)NCC(c1ccco1)S(=O)(=O)c1ccccc1` (stereo not drawn) the Potency was inconclusive: 35.5 µM [inhibitor, single point].
In the case of `Cn1nccc1C(=O)OCC(=O)Nc1ccccc1`, the “activity change, negative = inhibition” value is reported as inactive: 4.82% [at 46.1 µM].
With `CN(N)c1ccc2c(C(F)(F)F)cc(C(F)(F)F)nc2n1` the “activity change, negative = inhibition” value was inactive: 10.9%.
With `N/C(=N\OC(=O)COc1ccccc1)c1ccccn1` the Potency was inconclusive: 6.51 µM [activator, single point].
With `O=c1c2c3c(sc2ncn1/N=C/c1ccco1)CCCC3` the Potency was inconclusive: 9.2 µM [activator, partial curve].
In the case of `COc1ccc(CC(=S)N2CCOCC2)cc1F`, the “activity change, negative = inhibition” value is reported as inactive: 9.01%.
In the case of `Cc1cccc(NC(=S)/N=C(\N)Nc2nc(C)c3ccc(C)cc3n2)c1`, the Potency is reported as inconclusive: 20 µM [inhibitor, partial curve, poor fit].
With `COc1cccc(C(=O)NCCCNC(=O)c2ccccn2)c1` the “activity change, negative = inhibition” value was inactive: -0.608% [at 46.1 µM].
For `CNS(=O)(=O)c1cccc(C(=O)OCC(=O)Nc2ccc(Cl)cn2)c1`, the Potency was inconclusive: 12.6 µM [activator, single point].
In the case of `Cc1cc(C)c(NS(=O)(=O)c2cccc3cccnc23)c(C)c1`, the “activity change, negative = inhibition” value is reported as inactive: -1.42%.
For `CNC(=S)N/N=C/c1cn(CCOc2ccc(OC)cc2)c2ccccc12`, the Potency was inconclusive: 11.2 µM [inhibitor, partial curve, poor fit].
In the case of `CCCSc1ncc(Cl)c(C(=O)Nc2ccc(S(=O)(=O)N3CCC(C)CC3)cc2)n1`, the Potency is reported as inconclusive: 35.5 µM [inhibitor, single point].
With `CCOc1ccc(NC(=O)Cn2cc(C(=O)c3ccc(CC)cc3)c(=O)c3cc4c(cc32)OCO4)cc1` the “activity change, negative = inhibition” value was inactive: 29.4% [at 46.1 µM].
With `O=C(CN1CCN(c2ccccc2F)CC1)c1c[nH]c2ccc(F)cc12` the Potency was inconclusive: 11.6 µM [inhibitor, single point].
For `COc1ccc(NC(=O)Cn2c(=O)cc(C)c3c(C)nn(C)c32)cc1`, the “activity change, negative = inhibition” value was inactive: -6.45% [at 46.1 µM].
With `Cc1cccc(C(C)C)c1NC(=O)C1CCN(S(=O)(=O)c2ccccc2)CC1` the Potency was inconclusive: 35.5 µM [inhibitor, single point].
With `Cc1ccc(S(=O)(=O)Nc2c(O)c3ccccc3oc2=O)cc1C` the Potency was inconclusive: 35.5 µM [inhibitor, single point].
With `COc1ccc(NC(=O)c2cnc(Nc3ccc(C)c(Cl)c3)c3ccccc23)c(OC)c1` the “activity change, negative = inhibition” value was inactive: 3.5% [at 46.1 µM].
With `COc1ccc2c(c1)C(C)=CC(C)(C)N2S(=O)(=O)c1ccc(Br)cc1` the Potency was inconclusive: 2.24 µM [inhibitor, partial curve, poor fit].
For `CC(=O)Nc1cccc(NC(=O)CSc2ccc(-c3ccccn3)nn2)c1`, the Potency was inconclusive: 22.4 µM [inhibitor, single point].
With `Cc1ccc(-c2csc(NC(=O)CSc3nc4ccccc4[nH]3)n2)cc1` the Potency was inconclusive: 0.794 µM [inhibitor, partial curve, poor fit].
In the case of `O=C1NC(=S)S/C1=C\C=C\c1ccc([N+](=O)[O-])o1`, the Potency is reported as inconclusive: 12.6 µM [inhibitor, partial curve, poor fit].
For `Cc1cc(C(=O)N/N=C/c2ccc(O)c(O)c2O)c(C)n1-c1ccccc1`, the Potency was inconclusive: 3.98 µM [inhibitor, full curve, poor fit].
In the case of `CNS(=O)(=O)c1ccc(N=Cc2c(O)n(-c3ccccc3)c(=O)[nH]c2=O)cc1`, the Potency is reported as inconclusive: 22.4 µM [activator, partial curve, poor fit].
With `O=C(NCCc1ccccc1)c1ccc(Cl)c(S(=O)(=O)N2CCOCC2)c1` the Potency was inconclusive: 35.5 µM [inhibitor, single point].
With `COc1ccc(-c2ccn(-c3cccc(F)n3)n2)cc1` the Potency was inconclusive: 35.5 µM [inhibitor, single point].
In the case of `Cc1sc2ncnc(N3CCN(c4ncccn4)CC3)c2c1C`, the Potency is reported as inconclusive: 15.8 µM [inhibitor, partial curve, poor fit].
For `CCCC1(CC(C)C)C(=O)NC(=S)NC1=O`, the Potency was inconclusive: 15.8 µM [activator, partial curve, poor fit].
For `CCOC(=O)c1c(NC(=O)C[n+]2ccc(N(C)C)cc2)sc(C)c1C`, the Potency was inconclusive: 2.82 µM [inhibitor, partial curve, poor fit].
For `Cc1ccc2c(C)ccc(O)c2n1`, the Potency was inconclusive: 16.4 µM [inhibitor, partial curve, poor fit].
For `C=C(C)Cn1c(=O)c2c(nc3n2CCN3c2cc(C)cc(C)c2)n(C)c1=O`, the Potency was inconclusive: 10 µM [inhibitor, partial curve, poor fit].
In the case of `OC(COCC(F)(F)C(F)(F)C(F)(F)C(F)F)Cn1c2ccc(Cl)cc2c2cc(Cl)ccc21` (stereo not drawn), the Potency is reported as inconclusive: 35.5 µM [inhibitor, single point].
With `COc1ccc(N2CCN(C(=O)C3CCN(Cc4nc(-c5ccc(Cl)cc5)oc4C)CC3)CC2)cc1` the “activity change, negative = inhibition” value was inactive: 13.4% [at 46.1 µM].
With `O=C1c2ccccc2NC(c2cccc(Cl)c2)N1N=C1CCCCCC1` (stereo not drawn) the “activity change, negative = inhibition” value was inactive: 11.2%.
For `O=C(CSc1nc2ccsc2c(=O)n1Cc1ccc(C(=O)O)cc1)NCC1CCCO1` (stereo not drawn), the “activity change, negative = inhibition” value was inactive: 17.4%.
With `CCc1cc(C(=O)NNC(=S)Nc2cc(C)ccc2C)cs1` the “activity change, negative = inhibition” value was inactive: 21.9%.
In the case of `CN1CCN(Cc2c(O)ccc3cc(-c4ccccn4)c(=O)oc23)CC1`, the Potency is reported as inconclusive: 11.2 µM [activator, partial curve, poor fit].
In the case of `Cc1ccc(S(=O)(=O)CC(=O)c2cc(C)c(OC(=O)N(C)C)c(C)c2)cc1`, the Potency is reported as inconclusive: 15.8 µM [inhibitor, single point].
With `COc1ccc(CCN2C(=O)NC(NC(=O)c3ccccc3OC)(C(F)(F)F)C2=O)cc1OC` (stereo not drawn) the “activity change, negative = inhibition” value was inactive: 15.5% [at 46.1 µM].
With `COc1ccc(NC(=O)c2ccco2)cc1NC(=O)c1ccc(C)c(C)c1` the Potency was inconclusive: 20 µM [inhibitor, single point].
With `CCN(C(=O)CSc1nc2ccccc2n1Cc1ccc(C(=O)OC)cc1)c1ccccc1` the Potency was inconclusive: 10 µM [inhibitor, partial curve, poor fit].
With `C=CCc1ccccc1OCC(O)Cn1ccnc1C` (stereo not drawn) the “activity change, negative = inhibition” value was inactive: -1.32%.
In the case of `O=C(Nc1ccc(Cl)cc1)c1cccc(S(=O)(=O)Nc2ccccn2)c1`, the Potency is reported as inconclusive: 35.5 µM [inhibitor, single point].
For `COc1ccc(C(CNC(=O)c2cc3ccccc3cc2OC)N2CCCC2)cc1` (stereo not drawn), the Potency was inconclusive: 25.1 µM [inhibitor, single point].
With `Cc1ccc(/C=C(\C#N)C(=O)Nc2ccc(Br)cc2)o1` the “activity change, negative = inhibition” value was inactive: 13.7% [at 46.1 µM].
In the case of `O=C(Cn1cc(SCc2ccc(Br)cc2)c2ccccc21)N1CCCCC1`, the “activity change, negative = inhibition” value is reported as inactive: -3.44% [at 46.1 µM].
In the case of `CCCn1c(N)c(C(=O)CSc2nnnn2-c2ccc(O)cc2)c(=O)n(C)c1=O`, the Potency is reported as inconclusive: 35.5 µM [inhibitor, single point].
For `O=C(Nc1ccc(Cl)cc1)N1CCOCC1`, the Potency was inconclusive: 2.82 µM [activator, partial curve, poor fit].
With `CC(Sc1nnnn1C1CCCC1)C(=O)Nc1cccc(S(=O)(=O)N2CCOCC2)c1` (stereo not drawn) the “activity change, negative = inhibition” value was inactive: -2.21%.
For `CSc1ccc(CN2CCN(Cc3ccc([N+](=O)[O-])cc3)CC2)cc1`, the Potency was inconclusive: 0.794 µM [inhibitor, full curve, poor fit].
In the case of `O=C1c2ccccc2C(=O)C1c1ccc(Cl)cc1`, the “activity change, negative = inhibition” value is reported as inactive: 2.42%.
In the case of `O=C1CC(C2CCCO2)C(=O)N1c1ccccc1` (stereo not drawn), the “activity change, negative = inhibition” value is reported as inactive: 23.9%.
In the case of `CSc1ncc(/C=C2/C(=O)NC(=O)N(c3ccc(C)cc3)C2=O)cn1`, the Potency is reported as inconclusive: 14.1 µM [inhibitor, single point].
For `CC(C)c1ccc(NC(=O)C2CCN(S(=O)(=O)c3ccc(Br)s3)CC2)cc1`, the “activity change, negative = inhibition” value was inactive: -8.99% [at 46.1 µM].
For `CC(=O)OC1(C(C)=O)CCC2C3CC(Cl)C4=CC(=O)CCC4(C)C3CCC21C` (stereo not drawn), the Potency was inconclusive: 7.08 µM [inhibitor, partial curve, poor fit].
